± gives the uncertainty stated by the source. Many entries were measured with a wide error.
Assay: self-splicing fitness, log relative to wild type (ln ratio); higher = more splicing; Tetrahymena group I intron in knt gene, E. coli kanamycin selection, DiMSum; sequences stand for … in CUCUCU…GGAGGGAAAAGUUAUCAGGCAUGCACCUGGUAGCUAGUCUUUAAACCAAUAGAUUGCAUCGGUUUAAAAGGCAAGACCGUCAAAUUGCGGGAAAGGGGUCAACAGCCGUUCAGUACCAAGUCUCAGGGGAAACUUUGAGAUGGCCUUGCAAAGGGUAUGGUAAUAAGCUGACGGACAUGGUCCUAACCACGCAGCCAAGUCCUAAGUCAACAGAUCUUCUGUUGAUAUGGAUGCAGUUCACAGACUAAAUGUCGGUCGGGGAAGAUGUAUUCUUCUCAUAAGAUAUAGUCGGACCUCUCCUUAAUGGGAGCUAGCGGAUGAAGUGAUGCAACACUGGAGCCGCUGGGAACUAAUUUGUAUGCGAAAGUAUAUUGAUUAGUUUUGGAGUACUCGUGGUCG
Procedure, shortened: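 Six replicate transformations of E. coli BL21(DE3) with a pET-22b(+) library were grown overnight at 37°C or 30°C. The library randomised all eight P1ex-region intron nucleotides, the intron lying in the knt kanamycin-resistance gene, and plates were LB agar with or without 25 μg/mL kanamycin plus 100 μg/mL carbenicillin, 50 μM IPTG and 0.2% rhamnose. Pooled colonies were amplicon-sequenced on an Illumina HiSeq 2500, and fitness is the DiMSum error-weighted combination of wild-type-normalised replicate fold changes, kanamycin versus none.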

Sequence | self-splicing fitness (ln) (30 °C) | self-splicing fitness (ln) (37 °C)
GCAGAGCAAUAUUACGGACA | -4.24 ± 0.73 | –
UCGUAGCAAUAUUACGAGCC | -2.44 ± 1.1 | -0.681 ± 1.4
ACCCAGCAAUAUUACGCGCC | -0.907 ± 0.064 | 0.136 ± 0.094
GCCAAGCAAUAUUACGCAUA | -1.3 ± 0.09 | -0.709 ± 0.085
AUUGAGCAAUAUUACGCGGC | – | -2.96 ± 0.53
UGGAAGCAAUAUUACGCAUC | -4.47 ± 0.59 | –
GGAUAGCAAUAUUACGAAAG | – | -2.23 ± 0.8
GUAGAGCAAUAUUACGGGCC | -4.21 ± 0.73 | -0.695 ± 0.52
UCCGAGCAAUAUUACGAGCC | -2.84 ± 0.55 | –
UAAGAGCAAUAUUACGUGAU | -4.21 ± 0.34 | -2.43 ± 0.35
CUGCAGCAAUAUUACGAAUC | -4.09 ± 1 | -0.833 ± 0.5
GGUUAGCAAUAUUACGCCAC | 0.425 ± 0.57 | –
UCGGAGCAAUAUUACGCUAC | – | -0.836 ± 0.74
UGUUAGCAAUAUUACGUAUC | -3.99 ± 0.72 | –
UUUUAGCAAUAUUACGAAGG | -2.07 ± 0.58 | –
UCAGAGCAAUAUUACGCCAU | -3.94 ± 0.51 | –
CGUGAGCAAUAUUACGAAUA | -2.8 ± 0.28 | -2.87 ± 0.32
GAUUAGCAAUAUUACGUAGU | -3.06 ± 0.15 | -1.34 ± 0.12
GUUGAGCAAUAUUACGGCGG | -3.4 ± 1.1 | –
UCGCAGCAAUAUUACGACAC | -1.67 ± 0.26 | -2.78 ± 0.41
CUUCAGCAAUAUUACGUGCC | – | -3.49 ± 1
GCCUAGCAAUAUUACGCCUA | -1.3 ± 0.57 | –
GAGCAGCAAUAUUACGCCCU | – | -2.12 ± 0.55
UGUAAGCAAUAUUACGAGAU | -3.71 ± 0.3 | -3.14 ± 0.37
UCUGAGCAAUAUUACGGCCA | -2.47 ± 0.78 | -2.08 ± 1.1

Sequence | self-splicing fitness (ln) (30 °C) | self-splicing fitness (ln) (37 °C)
UGUUAGCAAUAUUACGAAGA | -3.26 ± 0.66 | –
GAGAAGCAAUAUUACGCCCG | -2.15 ± 0.19 | 0.00226 ± 0.24
GAACAGCAAUAUUACGUCAC | -3.44 ± 0.23 | -0.689 ± 0.17
GCGCAGCAAUAUUACGCUGC | -4.14 ± 0.59 | –
AGGAAGCAAUAUUACGCUAG | – | -1.23 ± 0.55
GUGCAGCAAUAUUACGAAGG | -2.59 ± 0.19 | -1.53 ± 0.23
AAAGAGCAAUAUUACGAGCU | -3.99 ± 0.6 | –
GGAGAGCAAUAUUACGCCGA | -1.52 ± 0.61 | –
GUAUAGCAAUAUUACGAGCU | -2.42 ± 0.27 | -1.61 ± 0.3
CUCGAGCAAUAUUACGUGUC | -4.18 ± 0.52 | –
CUUGAGCAAUAUUACGAUCA | -3.28 ± 0.75 | –
CAUAAGCAAUAUUACGGAUC | -4.38 ± 0.59 | –
AUCGAGCAAUAUUACGGAGC | -2.84 ± 0.77 | -2.79 ± 0.75
UCCUAGCAAUAUUACGUCUA | -3.65 ± 0.61 | –
UCUCAGCAAUAUUACGCUCC | – | -1.88 ± 0.72
GACCAGCAAUAUUACGCCAC | -3.67 ± 0.52 | –
UGGGAGCAAUAUUACGGAAG | -3.86 ± 0.72 | -2.32 ± 0.65
AGAUAGCAAUAUUACGCCGG | – | 0.0981 ± 0.71
GAUGAGCAAUAUUACGUGCU | – | -2.85 ± 0.53
CAUGAGCAAUAUUACGCCUC | -2.13 ± 0.65 | –
CCUUAGCAAUAUUACGCCCU | – | -1.36 ± 0.57
CCGCAGCAAUAUUACGAUGA | – | -2.55 ± 0.63
UGCGAGCAAUAUUACGCGCU | – | -3.53 ± 1
CCUGAGCAAUAUUACGCCUA | – | -2.64 ± 0.61
CAAGAGCAAUAUUACGACGC | -3.47 ± 0.6 | –

Look-ups from above:
self-splicing fitness (ln) (37 °C) with CCUUAGCAAUAUUACGCCCU is entered as -1.36 ± 0.57
self-splicing fitness (ln) (30 °C) with CUCGAGCAAUAUUACGUGUC is entered as -4.18 ± 0.52
self-splicing fitness (ln) (30 °C) with GAUUAGCAAUAUUACGUAGU is entered as -3.06 ± 0.15

Reference: the supplement of paper PMC7877785
